Reference: US7867545B2, “Homogenous granular solid matrix containing vegetable protein” (J.P.M.E.D. Ltd., priority 2000, dated 2011)

Assay: Bitterness / taste evaluation of aliquots and granules

Substance	bitterness evaluated (dose of 10 mg of ferrous chelate in 100 ml tomato juice)	bitterness evaluated (dose of 10 mg of ferrous sulfate in 100 ml tomato juice)	taste / taste masking
ferrous sulfate	typically bitter and very unpleasant in the mouth	typically bitter and very unpleasant in the mouth	–
Zinc gluconate	–	–	typically bitter, and causes a metallic sensation and very unpleasant taste in the mouth
